# From publication PMC7862700
# Only a part is listed here, and it is no random draw. For part of these data: At the low end of the ranking, values are background and their order means little. Some of the results follow. For part of these data: The exact form of the protein is not confirmed.
# Columns and labels:
# Assay in all cases: DAPPL (digital affinity profiling via proximity ligation, sequencing)
# Settings in all cases: 10 mM Tris-HCl pH 7.5, 50 mM NaCl, 1 mM DTT, 4% glycerol, room temperature, 30 min; GST-TFs on glutathione beads, 16-mer random dsDNA library, 0.1% …; high values mean tight binding; double strand, one strand shown; scale: fold enrichment (6-mer frequency, TF over GST control)
# GABPA = molecular target: T1, GABPA (UniProt Q06546)
# T1 sequence: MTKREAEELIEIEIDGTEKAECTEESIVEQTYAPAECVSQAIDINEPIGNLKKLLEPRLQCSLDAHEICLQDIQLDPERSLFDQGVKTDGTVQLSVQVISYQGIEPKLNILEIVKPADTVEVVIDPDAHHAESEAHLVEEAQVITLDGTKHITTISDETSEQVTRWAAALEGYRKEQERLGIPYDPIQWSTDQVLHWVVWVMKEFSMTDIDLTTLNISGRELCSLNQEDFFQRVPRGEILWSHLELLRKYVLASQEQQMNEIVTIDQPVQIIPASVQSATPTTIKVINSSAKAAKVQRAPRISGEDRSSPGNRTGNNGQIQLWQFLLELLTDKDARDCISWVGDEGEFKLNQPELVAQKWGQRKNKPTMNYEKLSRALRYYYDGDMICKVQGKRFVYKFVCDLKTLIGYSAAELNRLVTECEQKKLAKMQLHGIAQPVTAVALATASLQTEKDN
# ETS1 = molecular target: T2, ETS1 (UniProt P14921)
# T2 sequence: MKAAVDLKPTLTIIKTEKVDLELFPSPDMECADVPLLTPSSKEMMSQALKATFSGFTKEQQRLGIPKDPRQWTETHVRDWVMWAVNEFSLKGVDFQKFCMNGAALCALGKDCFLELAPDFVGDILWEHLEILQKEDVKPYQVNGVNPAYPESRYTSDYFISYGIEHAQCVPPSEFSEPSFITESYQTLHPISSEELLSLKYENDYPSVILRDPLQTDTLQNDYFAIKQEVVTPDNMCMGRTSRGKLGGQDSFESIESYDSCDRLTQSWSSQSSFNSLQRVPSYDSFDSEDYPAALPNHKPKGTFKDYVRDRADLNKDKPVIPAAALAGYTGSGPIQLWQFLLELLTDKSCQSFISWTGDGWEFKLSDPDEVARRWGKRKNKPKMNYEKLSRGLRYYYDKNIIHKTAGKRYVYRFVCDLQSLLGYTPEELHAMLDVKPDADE
# SPDEF = molecular target: T3, SPDEF (UniProt O95238)
# T3 sequence: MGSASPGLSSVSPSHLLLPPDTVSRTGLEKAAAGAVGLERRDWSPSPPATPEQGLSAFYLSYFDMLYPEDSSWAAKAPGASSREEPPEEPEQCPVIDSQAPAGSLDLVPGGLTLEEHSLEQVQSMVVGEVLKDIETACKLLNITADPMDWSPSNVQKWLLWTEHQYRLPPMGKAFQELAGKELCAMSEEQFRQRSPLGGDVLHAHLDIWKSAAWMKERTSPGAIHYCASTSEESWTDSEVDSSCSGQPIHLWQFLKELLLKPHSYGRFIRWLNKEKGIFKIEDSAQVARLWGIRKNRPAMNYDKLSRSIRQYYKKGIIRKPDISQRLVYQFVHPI
Sequence,binding signal (GABPA),binding signal (ETS1),binding signal (SPDEF)
CCGTTA,0.981,0.995,1.04
GCAGAA,0.911,0.933,0.799
AGTATA,0.975,0.985,0.933
CATCAG,0.977,0.936,0.925
AGCACG,0.917,0.946,0.924
ACTCAG,0.944,0.995,0.964
ATACTC,1.48,1.27,1.32
ATAGGT,0.973,1.05,1.05
TCGAGG,0.84,0.849,0.756
TAACTA,1.46,1.3,1.26
GCGCGT,0.78,0.753,0.799
TAGAAC,1.03,0.988,0.98
AAACAG,0.998,1.07,0.977
GTACCT,1.26,1.15,1.27
TGATTG,0.98,1.05,0.981
CCCCAG,0.981,1,0.897
ACTGGG,0.931,0.893,0.821
TAGAGA,0.771,0.793,0.764
TACGGC,1.23,1.13,1.18
GTGTTA,0.949,0.905,0.978
TCTAGA,1.02,0.992,0.959
AGCGCT,1.04,1.04,0.933
CGCTGG,0.975,0.959,0.975
CTAGTG,0.903,0.808,0.824

Sequence,binding signal (GABPA),binding signal (ETS1),binding signal (SPDEF)
GAACTG,0.984,0.993,0.986
ATCGCG,0.95,1.08,0.856
CGCCAT,0.975,1.06,0.985
GTCACC,0.934,0.976,0.9
TGGGTG,0.963,1.19,1.01
GTTAGC,0.929,0.962,0.989
AGAAAA,1.03,1.02,0.981
GCAAGC,0.99,0.86,0.821
ACATGA,0.942,0.968,0.921
CTAGCG,1.32,1.08,1.1
GATCTG,0.918,0.902,0.969
CTAACC,1.09,1.13,1.09
GAATCA,0.967,0.974,0.907
CGCAAT,0.907,1,0.916
TCAGTT,0.957,1.02,1.04
TAAGCG,1.01,0.899,0.976
TAGTCA,0.93,0.84,0.785
AACGGT,0.922,0.91,0.892
AGGGAT,0.838,0.773,0.812
AAGGGA,0.913,0.905,0.898
ACGGTT,0.974,0.953,1.04
GTGCCG,0.877,0.851,0.89
ACTTGC,1.42,1.45,1.44
CCCGGT,0.965,1.09,1.11

Sequence,binding signal (GABPA),binding signal (ETS1),binding signal (SPDEF)
GAAGAA,1.14,1.11,1.09
TGTCAG,0.898,0.899,0.843
AAAGCT,1.08,1.1,0.965
CGGAAG,2.61,2.66,3.02
CCGCGG,0.848,0.917,0.791
GTCATT,0.999,0.965,0.848
TACGGG,0.891,1.01,0.899
GCGGCT,0.86,0.976,0.926
GTCAAA,0.936,0.867,0.832
GTATGT,0.967,1.09,0.947
GGGATT,0.891,0.861,0.907
CTGATT,1.14,1.22,1.21
GCCTGG,0.989,0.968,0.961
GTTGGC,0.818,0.885,0.934
ACAGTT,0.857,0.865,0.861
GTCACG,0.999,1.08,1.02
TAGCGT,0.977,0.939,0.971
TGAACG,0.887,0.904,0.946
GCGTTG,0.888,0.932,0.909
CTAGTA,1.08,1.16,1.11
CTAAGG,0.971,1.01,0.972
CCGGCG,0.969,0.944,0.974
CTAGAA,1.05,0.989,1.01
CTGTGT,0.796,0.899,0.847

Sequence,binding signal (GABPA),binding signal (ETS1),binding signal (SPDEF)
CGAGAA,0.956,0.872,0.83
CATGGC,0.96,1.05,0.803
AGAGAA,0.914,0.838,0.841
CAAAGA,0.915,0.981,0.98
GCCACC,0.927,0.917,0.89
GTGGCA,0.931,1.04,0.933
AGATCA,0.935,0.888,0.914
ACACCA,0.944,0.965,0.966
TGGTGA,0.896,0.963,0.986
ACATCG,0.998,1.05,1.08
CGGCCC,0.925,0.998,0.966
GCCATT,0.962,0.982,0.834
CCCCTA,0.965,1.04,1.07
GCTAGG,0.933,1.04,0.921
CGCAAA,0.978,1.06,0.991
TGCGGT,0.932,0.904,0.889
GATAAA,0.92,0.997,0.988
GCATTA,0.841,0.865,0.854
TCGTCG,0.99,0.962,0.902
TGAAAG,0.965,0.955,0.926
GCGTTT,1.11,1.13,0.985
GCAATG,0.956,1.04,0.969
CAGAAC,0.931,0.908,0.927
CCAGAA,0.957,0.954,0.956

# Single records, from the list above. Values in the order: binding signal (GABPA) | binding signal (ETS1) | binding signal (SPDEF)
# CTGTGT is entered as 0.796 | 0.899 | 0.847
# AGCGCT is entered as 1.04 | 1.04 | 0.933
# GTCAAA is entered as 0.936 | 0.867 | 0.832
# ATCGCG is entered as 0.95 | 1.08 | 0.856

# More records follow.

Sequence,binding signal (GABPA),binding signal (ETS1),binding signal (SPDEF)
GACTCG,0.921,0.866,0.754
TCATAG,0.935,0.932,0.909
GTGTAC,0.791,0.9,0.964
TCAGTA,0.977,0.861,0.932
GTCCAA,0.916,1,0.968
ACAAGA,0.986,0.948,0.984
GTGGTA,0.917,0.991,0.871
TTCATT,1.16,1.28,1.24
GATCAT,0.972,0.97,0.965
TCGGCT,1.03,0.951,0.861
ATGGGA,0.952,0.919,0.918
GTTTGC,1.04,1.06,0.961
TGGTCG,1.08,1.02,0.962
GGAATA,0.922,0.818,0.94
GGCAGC,0.879,0.85,0.916
ATCACG,0.984,1.05,1.07
TGAAGA,0.994,0.885,0.99
AGTACG,0.964,0.907,0.865
GTGCCC,1.01,0.896,0.971
AGAATG,0.976,0.984,0.984
ACCCGT,0.845,0.922,0.873
GCGCAC,0.89,0.851,0.834
TCGATA,1.08,1.06,1.07
GCACTG,1.14,1.08,0.975
